Binding data for one molecule are collected here from paper PMC3961655, “Methyllysine Reader Plant Homeodomain (PHD) Finger Protein 20-like 1 (PHF20L1) Antagonizes DNA (Cytosine-5) Methyltransferase 1 (DNMT1) Proteasomal Degradation*” (The Journal of Biological Chemistry, 2014).

The target in this assay is GST-MBT domain fusion derived from PHF20L1. As to the kind of experiment: peptide or protein array; CADOR (chromatin-associated domain array): domains fused to GST spotted on the chip, biotin-DNMT1K142me1 peptide bound and detected on it; both purified.

Results are given in words; binding and its absence hold for the method and conditions named. Binding can be weak; no strength is given. Where a sequence is shown, tags or fusion partners need not be part of it.

LSKPRTPRRSKSDGEAKPE (monomethyl-lysine K(me1) at Lys-142; biotin, before the first residue) [biotin-tagged DNMT1K142me1 peptide (amino acids 132-150 of DNMT1 with monomethylated Lys-142)]: the binding result is on record as “binds”.
